# Results are given in words; binding and its absence hold for the method and conditions named. In cells and extracts the contact can be indirect. Some binding calls cover weakened binding; strength is not graded here.
# By UniProt entry, the sequences of proteins in these tests, tags left out. Where a name states a change or a piece, a line headed by the entry shows the natural chain unless it says otherwise.
# UniProt P11229, whole entry, looked up, stated change not applied: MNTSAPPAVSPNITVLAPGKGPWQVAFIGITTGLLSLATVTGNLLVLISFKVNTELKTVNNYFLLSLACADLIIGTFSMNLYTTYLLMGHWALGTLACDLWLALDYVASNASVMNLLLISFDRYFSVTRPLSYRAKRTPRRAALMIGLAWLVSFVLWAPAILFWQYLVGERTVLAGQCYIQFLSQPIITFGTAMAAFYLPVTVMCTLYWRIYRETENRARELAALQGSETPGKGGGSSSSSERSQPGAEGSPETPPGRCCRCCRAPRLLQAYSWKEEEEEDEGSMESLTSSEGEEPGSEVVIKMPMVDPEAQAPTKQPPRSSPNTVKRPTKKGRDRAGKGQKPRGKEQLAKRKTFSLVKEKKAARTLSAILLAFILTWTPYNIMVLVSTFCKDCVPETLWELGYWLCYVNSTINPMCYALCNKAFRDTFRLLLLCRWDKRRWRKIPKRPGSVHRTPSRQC
# Assays:
# [1] = target: M1RΔICL3 (NLuc-M1R with Thr230, Ser251, Thr254, Ser321, Thr354 and Ser356 deletion at ICL3 loop) (human) (UniProt P11229); test: FRET or BRET
# [2] = target: M1R-S251A, T254A (NLuc-M1R with Ser251 and Thr254 substitution with alanine at ICL3 loop) (human) (UniProt P11229); test: FRET or BRET
substance,measurement,setting,value
HaloTag-β-arrestin2 (from UniProt P32121 1-409),binding,[1],binds
same,binding,[2],binds

# From publication doi:10.1101/2025.04.16.649213
